Measurements reported in article PMC4066787.
No constants are given. Whether binding was seen depends on the method and setting. In cells and extracts the contact can be indirect. Some results given as binding are weak or reduced against the parent protein; the word gives no strength.

Amino acid sequences for entries named in this document (tags omitted).
UniProt Q6PDQ2: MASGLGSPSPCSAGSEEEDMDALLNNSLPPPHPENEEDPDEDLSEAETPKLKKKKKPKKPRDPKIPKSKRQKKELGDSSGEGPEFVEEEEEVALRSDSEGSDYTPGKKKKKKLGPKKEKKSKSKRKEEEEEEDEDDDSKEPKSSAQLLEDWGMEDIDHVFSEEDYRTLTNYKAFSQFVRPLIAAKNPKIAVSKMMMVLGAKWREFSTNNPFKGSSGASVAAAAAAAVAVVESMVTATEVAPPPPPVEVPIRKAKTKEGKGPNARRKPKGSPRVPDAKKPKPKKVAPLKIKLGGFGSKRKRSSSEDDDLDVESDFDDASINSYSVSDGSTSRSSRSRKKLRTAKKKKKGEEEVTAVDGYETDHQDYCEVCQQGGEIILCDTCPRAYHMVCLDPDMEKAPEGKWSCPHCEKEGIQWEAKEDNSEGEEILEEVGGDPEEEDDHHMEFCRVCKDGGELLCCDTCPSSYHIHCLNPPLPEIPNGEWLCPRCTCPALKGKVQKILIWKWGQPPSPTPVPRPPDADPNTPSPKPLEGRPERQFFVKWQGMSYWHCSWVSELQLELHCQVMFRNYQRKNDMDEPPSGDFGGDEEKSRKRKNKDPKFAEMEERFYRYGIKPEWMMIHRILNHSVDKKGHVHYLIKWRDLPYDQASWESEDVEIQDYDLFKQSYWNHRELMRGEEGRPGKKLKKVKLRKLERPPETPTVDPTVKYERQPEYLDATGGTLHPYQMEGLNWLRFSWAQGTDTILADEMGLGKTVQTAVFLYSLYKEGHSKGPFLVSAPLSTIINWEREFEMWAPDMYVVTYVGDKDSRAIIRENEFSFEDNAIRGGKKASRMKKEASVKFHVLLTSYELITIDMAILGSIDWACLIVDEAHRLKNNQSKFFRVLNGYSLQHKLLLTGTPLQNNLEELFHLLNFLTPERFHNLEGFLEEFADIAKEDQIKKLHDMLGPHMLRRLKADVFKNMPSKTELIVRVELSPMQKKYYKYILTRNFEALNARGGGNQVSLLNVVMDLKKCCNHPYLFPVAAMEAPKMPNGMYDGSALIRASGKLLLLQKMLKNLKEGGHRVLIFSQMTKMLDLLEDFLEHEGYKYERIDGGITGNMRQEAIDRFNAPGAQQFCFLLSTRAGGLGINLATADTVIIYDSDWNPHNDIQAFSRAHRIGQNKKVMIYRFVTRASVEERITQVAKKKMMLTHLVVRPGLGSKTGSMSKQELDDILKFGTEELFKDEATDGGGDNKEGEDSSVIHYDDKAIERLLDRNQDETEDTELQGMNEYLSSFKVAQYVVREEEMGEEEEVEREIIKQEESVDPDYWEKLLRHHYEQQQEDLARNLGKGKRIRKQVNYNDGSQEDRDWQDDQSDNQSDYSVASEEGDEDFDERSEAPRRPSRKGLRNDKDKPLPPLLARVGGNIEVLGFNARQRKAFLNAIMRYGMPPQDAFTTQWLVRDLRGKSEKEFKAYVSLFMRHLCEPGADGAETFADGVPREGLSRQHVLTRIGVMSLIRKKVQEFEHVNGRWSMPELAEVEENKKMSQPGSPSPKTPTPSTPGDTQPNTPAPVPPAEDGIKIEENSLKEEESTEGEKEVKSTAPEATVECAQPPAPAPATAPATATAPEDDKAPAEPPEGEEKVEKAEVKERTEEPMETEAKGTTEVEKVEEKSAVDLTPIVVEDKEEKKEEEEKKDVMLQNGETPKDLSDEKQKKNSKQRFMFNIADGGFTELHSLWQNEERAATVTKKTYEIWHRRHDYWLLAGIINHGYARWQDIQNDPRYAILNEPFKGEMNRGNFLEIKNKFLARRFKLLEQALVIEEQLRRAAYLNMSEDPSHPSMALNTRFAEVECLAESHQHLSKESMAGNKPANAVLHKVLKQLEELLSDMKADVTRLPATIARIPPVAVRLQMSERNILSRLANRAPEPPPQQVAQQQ

Target: T1, epigenetic regulator UHRF1 protein (mouse (endogenous in R1 ESCs)) (UniProt Q8VDF2)
T1 sequence: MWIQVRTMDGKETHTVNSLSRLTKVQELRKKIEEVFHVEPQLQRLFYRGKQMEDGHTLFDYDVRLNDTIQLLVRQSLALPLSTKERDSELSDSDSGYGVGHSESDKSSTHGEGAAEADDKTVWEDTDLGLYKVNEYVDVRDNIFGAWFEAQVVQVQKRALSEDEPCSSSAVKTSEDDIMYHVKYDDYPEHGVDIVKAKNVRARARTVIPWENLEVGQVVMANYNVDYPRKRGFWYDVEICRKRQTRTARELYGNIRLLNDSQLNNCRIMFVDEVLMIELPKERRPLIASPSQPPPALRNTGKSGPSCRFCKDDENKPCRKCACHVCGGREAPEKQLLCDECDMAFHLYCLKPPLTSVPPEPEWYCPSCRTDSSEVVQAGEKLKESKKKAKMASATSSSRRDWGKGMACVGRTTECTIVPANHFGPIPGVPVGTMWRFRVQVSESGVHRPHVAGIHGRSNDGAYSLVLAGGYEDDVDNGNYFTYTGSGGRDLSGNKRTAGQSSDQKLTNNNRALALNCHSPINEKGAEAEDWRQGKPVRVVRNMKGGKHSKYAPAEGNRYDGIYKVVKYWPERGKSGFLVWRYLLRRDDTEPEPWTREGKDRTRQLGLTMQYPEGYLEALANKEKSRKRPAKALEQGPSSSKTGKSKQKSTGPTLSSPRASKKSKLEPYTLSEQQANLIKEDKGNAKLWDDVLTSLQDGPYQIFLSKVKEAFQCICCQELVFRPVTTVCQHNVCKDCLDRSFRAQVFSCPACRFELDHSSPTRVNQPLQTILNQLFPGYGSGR
Assay: co-IP; immunoprecipitation with anti-UHRF1 antibody from soluble extracts of ESCs in the presence of ethidium bromide to exclude DNA-mediated interaction; western blot

For “ATPase CHD4 (from UniProt Q6PDQ2 1-1915)”, the binding was “binds”.
